# In the supplement of paper PMC11542785:
# Counter-ions that a name gives are not always drawn. Some of the results follow. Repeats are few or missing, and single values can be far off. Square brackets hold non-standard residues; d marks the D form. Peptide text beside a SMILES is read from it. * marks the point of attachment. NHCH2CH2OH = OCCN*; For = O=C*
# Test system: Drosophila melanogaster DPAGT1 (Alg7) RNAi eye model
# Experiment: eye size Z-score vs DMSO-treated DPAGT1 model flies; higher = larger eye (suppression of DPAGT1 phenotype)
# Conditions: 5 uM
SMILES,eye size Z-score,eye size Z-score (female)
CCN1CCN(C(=O)N[C@@H](C(=O)N[C@@H]2C(=O)N3C(C(=O)O)=C(CSc4nnnn4C)CS[C@H]23)c2ccc(O)cc2)C(=O)C1=O [Cefoperazone dihydrate],-2.27,–
CC(NN)c1ccccc1 (stereo not given) [Mebanazine],0.05,–
CC(C(=O)O)c1ccc(N2Cc3ccccc3C2=O)cc1 (stereo not given) [Indoprofen],0.27,–
CO[C@@]12[C@H](COC(N)=O)C3=C(C(=O)C(C)=C(N)C3=O)N1C[C@@H]1N[C@@H]12 [Mitomycin C],-0.79,–
CC1=Nc2ccc(Cl)cc2S(=O)(=O)N1 [Diazoxide],-0.19,–
CCn1nc(C(=O)O)c(=O)c2cc3c(cc21)OCO3 [Cinoxacin],-0.44,–
Cc1cc(/C=C/c2ccc3cc(N(C)C)ccc3[n+]2C)c(C)n1-c1ccccc1 [Pyrvinium pamoate],0.56,–
COCCOC(=O)C1=C(C)NC(C)=C(C(=O)OC/C=C/c2ccccc2)C1c1cccc([N+](=O)[O-])c1 (stereo not given) [Cilnidipine],0.92,–
CCCCNc1ccc(C(=O)OCCOCCOCCOCCOCCOCCOCCOCCOCCOC)cc1 [Benzonatate],0.71,–
O=C(O)/C=C/c1ccc(Cn2ccnc2)cc1 [Ozagrel hydrochloride],0.34,–
CCCc1nc(C)c2c(=O)nc(-c3cc(S(=O)(=O)N4CCN(CC)CC4)ccc3OCC)[nH]n12 [Vardenafil],-0.55,–
O=C(O)COC(=O)Cc1ccccc1Nc1c(Cl)cccc1Cl [Aceclofenac],1.08,–
Cc1cnc(NC(=O)C2=C(O)c3ccccc3S(=O)(=O)N2C)s1 [Meloxicam],–,1.25
Cc1nnc(NS(=O)(=O)c2ccc(N)cc2)s1 [Sulfamethizole],-0.38,–
CCN1CCC[C@H]1CNC(=O)c1c(OC)ccc(Br)c1OC [Remoxipride hydrochloride],-0.47,–
CCN1CCN(c2cc3c(cc2F)c(=O)c(C(=O)O)cn3C2CC2)CC1 [Enrofloxacin],-0.28,–
COc1c2occc2c(OC)c2c(=O)cc(C)oc12 [Khellin],-0.05,–
Nc1cc(C(Cl)=C(Cl)Cl)c(S(N)(=O)=O)cc1S(N)(=O)=O [Clorsulon],-0.02,–
CC[C@H](C)C(=O)O[C@H]1CCC=C2C=C[C@H](C)[C@H](CC[C@@H]3C[C@@H](O)CC(=O)O3)[C@H]21 [Mevastatin],0.84,–
CC(=O)c1cc2cccc(OCC(O)CNC(C)C)c2o1 (stereo not given) [Befunolol],0.74,–
CN1CCN(c2c(F)cc3c(=O)c(C(=O)O)cn(CCF)c3c2F)CC1 [Fleroxacin],0.99,–
C[C@H](CCC(=O)O)[C@H]1CC[C@H]2[C@@H]3[C@H](O)C[C@@H]4C[C@H](O)CC[C@]4(C)[C@H]3CC[C@]12C [Chenodiol],0.28,–
NNc1nncc2ccccc12 [Hydralazine hydrochloride],0.64,–
CC(=O)OCC(CCn1cnc2cnc(N)nc21)COC(C)=O [Famciclovir],0.17,–

SMILES,eye size Z-score,eye size Z-score (female)
CN1CCN(CCCN2c3ccccc3Sc3ccc(Cl)cc32)CC1 [Prochlorperazine dimaleate],1.86,–
Cc1nc(=O)c2cc(CN(C)c3ccc(C(=O)N[C@@H](CCC(=O)O)C(=O)O)s3)ccc2[nH]1 [Raltitrexed],-0.36,–
CC(/C=C1\SC(=S)N(CC(=O)O)C1=O)=C\c1ccccc1 [Epalrestat],0.03,–
O=c1oc2ccccc2c(O)c1Cc1c(O)c2ccccc2oc1=O [Dicumarol],-0.05,–
CC(C)NC[C@@H](O)COc1cccc2ccccc12 [(R) Propranolol hydrochloride],0.07,–
CCN(CC)CCc1nc(-c2ccccc2)no1 [Oxolamine citrate salt],-0.06,–
CNCC(O)c1ccc(OC(=O)C(C)(C)C)c(OC(=O)C(C)(C)C)c1 (stereo not given) [Dipivefrin hydrochloride],0.03,–
"CC(C)NCC(O)c1ccc(O)c(O)c1 (single isomer, unassigned; (+)) [(+) Isoproterenol-(+)-bitartrate salt]",-0.11,–
Cc1c(N(C)CS(=O)(=O)O)c(=O)n(-c2ccccc2)n1C [Dipyrone sodium salt],0.49,–
CC(NCCC(c1ccccc1)c1ccccc1)c1ccccc1 (stereo not given) [Fendiline hydrochloride],-0.24,–
O=c1[nH]c(=O)n(C2CCCO2)cc1F (stereo not given) [Tegafur],0.25,–
Nc1nc2n[nH]nc2c(=O)[nH]1 [Azaguanine-8],-0.15,–
CN(C)c1nc(N(C)C)nc(N(C)C)n1 [Altretamine],0.23,–
CC(C)NCC(O)c1ccc2ccccc2c1 (stereo not given) [Pronethalol hydrochloride],-0.25,–
"C[C@H]1C[C@@H]2[C@H]([C@@H](O)C[C@@]3(C)[C@H]2CC[C@]3(O)C(=O)CO)[C@@]2(C)C=CC(=O)C=C12 [Methylprednisolone, 6-alpha]",-0.6,–
CCCNCC(O)COc1ccccc1C(=O)CCc1ccccc1 (stereo not given) [Propafenone hydrochloride],0.82,–
NC(=O)C(c1ccccc1)(c1ccccc1)[C@@H]1CCN(CCc2ccc3c(c2)CCO3)C1 [Darifenacin hydrobromide],0.73,–
COc1ccccc1OCC(O)CN1CCN(CC(=O)Nc2c(C)cccc2C)CC1 (stereo not given) [Ranolazine],0.71,–
COc1cc([C@@H]2c3cc4c(cc3[C@@H](O[C@@H]3O[C@@H]5CO[C@@H](C)O[C@H]5[C@H](O)[C@H]3O)[C@H]3COC(=O)[C@H]23)OCO4)cc(OC)c1O [Etoposide],0.12,–
COc1ccc(C2CNC(=O)C2)cc1OC1CCCC1 (stereo not given) [Rolipram],1.11,–
CC(C)C[C@@H](NC(=O)[C@H](C)NC(=O)CNC(=O)[C@@H](NC=O)C(C)C)C(=O)N[C@@H](C)C(=O)N[C@@H](C(=O)N[C@H](C(=O)N[C@H](C(=O)N[C@@H](Cc1c[nH]c2ccccc12)C(=O)N[C@H](CC(C)C)C(=O)N[C@@H](Cc1c[nH]c2ccccc12)C(=O)N[C@H](CC(C)C)C(=O)N[C@@H](Cc1c[nH]c2ccccc12)C(=O)N[C@H](CC(C)C)C(=O)N[C@@H](Cc1c[nH]c2ccccc12)C(=O)NCCO)C(C)C)C(C)C)C(C)C [Gramicidin] (For-VGA[dL]A[dV]VVW[dL]W[dL]W[dL]W-NHCH2CH2OH),-0.08,–
Cc1c(O)c(=O)ccn1C [Deferiprone],0.21,–
c1ccc([C@H]2CN3CCSC3=N2)cc1 [Levamisole hydrochloride],-0.37,–
CCC(=O)O[C@]1(C(=O)CCl)[C@@H](C)C[C@H]2[C@@H]3CCC4=CC(=O)C=C[C@]4(C)[C@@]3(F)[C@@H](O)C[C@@]21C [Clobetasol propionate],-0.26,–

# Full records, quoted from the list. Order of values: eye size Z-score	eye size Z-score (female)
# `O=c1oc2ccccc2c(O)c1Cc1c(O)c2ccccc2oc1=O` [Dicumarol] as listed: -0.05	–
# `COc1ccccc1OCC(O)CN1CCN(CC(=O)Nc2c(C)cccc2C)CC1` (stereo not given) [Ranolazine] as listed: 0.71	–
# `COc1ccc(C2CNC(=O)C2)cc1OC1CCCC1` (stereo not given) [Rolipram] as listed: 1.11	–
# `C[C@H]1C[C@@H]2[C@H]([C@@H](O)C[C@@]3(C)[C@H]2CC[C@]3(O)C(=O)CO)[C@@]2(C)C=CC(=O)C=C12` [Methylprednisolone, 6-alpha] as listed: -0.6	–

# (continued)

SMILES,eye size Z-score,eye size Z-score (female)
CC(C)[C@H](N)C(=O)OCC(CO)OCn1cnc2c(=O)nc(N)[nH]c21 (stereo not given in full) [Valganciclovir hydrochloride],-0.36,–
O=C1OCCN1/N=C/c1ccc([N+](=O)[O-])o1 [Furazolidone],-1.4,–
CCOC(=O)[C@H](CCc1ccccc1)N[C@H]1CS[C@H](c2cccs2)CN(CC(=O)O)C1=O [Temocapril hydrochloride],0.25,–
CCCCc1cc2ccccc2c(OCCN(C)C)n1 [Dimethisoquin hydrochloride],0.21,–
CC(C(=O)O)c1ccc2c(c1)[nH]c1ccc(Cl)cc12 (stereo not given) [Carprofen],0.16,–
Cc1cccc(C)c1NC(=O)C(C)N (stereo not given) [Tocainide hydrochloride],–,0.09
Cc1ccccc1C(=O)Nc1ccc(C(=O)N2CCCC(O)c3cc(Cl)ccc32)c(C)c1 (stereo not given) [Tolvaptan],0.61,–
Cc1cccc(C)c1NC(=O)CC12CCCN1CCC2 [Pilsicainide Hydrochloride],0.5,–
Nc1nc2[nH]cnc2c(=S)[nH]1 [Tioguanine],1.53,–
CC(C)c1cc2c(cc1S(=O)(=O)O)[C@@]1(C)CCC[C@@](C)(C(=O)O)[C@@H]1CC2 [Ecabet sodium],0.02,–
CN(C)C(=O)C(CCN1CCC(O)(c2ccc(Cl)cc2)CC1)(c1ccccc1)c1ccccc1 [Loperamide hydrochloride],0.1,–
O=C(OCC(O)CO)c1ccccc1Nc1ccnc2cc(Cl)ccc12 (stereo not given) [Glafenine hydrochloride],-1.09,–
NC(=O)c1cn(Cc2c(F)cccc2F)nn1 [Rufinamide],0.69,–
CC(C(=O)O)c1ccc(-c2ccccc2)c(F)c1 (stereo not given) [Flurbiprofen],-0.88,–
C[C@H]1O[C@@H](O[C@H]2[C@@H](O)C[C@H](O[C@H]3[C@@H](O)C[C@H](O[C@H]4CC[C@@]5(C)[C@H](CC[C@@H]6[C@@H]5C[C@@H](O)[C@]5(C)[C@@H](C7=CC(=O)OC7)CC[C@]65O)C4)O[C@@H]3C)O[C@@H]2C)C[C@H](O)[C@@H]1O [Digoxin],0.73,–
COc1cc([S+](C)[O-])ccc1-c1nc2cccnc2[nH]1 (stereo not given) [Sulmazole],0.1,–
NC[C@@H]1O[C@H](O[C@H]2[C@@H](O)[C@H](O[C@@H]3[C@@H](O)[C@H](N)C[C@H](N)[C@H]3O[C@H]3O[C@H](CO)[C@@H](O)[C@H](O)[C@H]3N)O[C@@H]2CO)[C@H](N)[C@@H](O)[C@@H]1O [Paromomycin sulfate],0.19,–
Nc1nc(CC(=O)Nc2ccc(CCNC[C@H](O)c3ccccc3)cc2)cs1 [Mirabegron],-1.6,–
COc1ccccc1OCC(O)CO (stereo not given) [Guaifenesin],-0.01,–
CC(=O)[C@H]1CC[C@H]2[C@@H]3C=CC4=CC(=O)CC[C@@]4(C)[C@@H]3CC[C@]12C [Dydrogesterone],-0.34,–
CN1[C@@H]2CC[C@H]1C[C@@H](OC(=O)c1c[nH]c3ccccc13)C2 [Tropisetron hydrochloride],-1.03,–
Cc1cccc(C)c1OCC(C)N (stereo not given) [Mexiletine hydrochloride],1.2,–
